Results published in US20170129957A1 (BERGENBIO ASA, published 2017).
No constants are given. Whether binding was seen depends on the method and setting. Some results given as binding are weak or reduced against the parent protein; the word gives no strength.

What was measured:
[1] = biological target: rhesus monkey Axl-Fc chimeric protein (rhesus monkey) (UniProt G7NLI7); test: SPR (Biacore 3000, 25 °C), rhe-Axl-Fc immobilised on CM5 chip, 1H12 at 10 µg/mL
[2] = biological target: rhesus monkey Axl-Fc chimeric protein (rhesus monkey) (UniProt G7NLI7); test: SPR (Biacore 3000), rhe-Axl-Fc immobilised on CM5 at 1,515.9 RU, MAb 1H12 injected at 10 µg/mL, 25 °C

B1: mouse anti-Axl monoclonal antibody 1H12 (antibody, V domains shown)
VH: EVKLVESGGDLVKPGGSLKLSCAASGFTFSSYGMSWVRQTPDKRLEWVATISSGGSYTYYPDSVKGRFTISRDNAKNTLYLQMSSLKSEDTAMYYCARHPIYYTYDDTMDYWGQGTSVTVSS
VL: DIVLTQSPAIMAASPGEKVTMTCSASSSVSSGNFHWYQQKPGTSPKLWIYRTSNLASGVPARFSGSGSGTSYSLTISSMEAEDAATYYCQQWSGYPWTFGGGTKLEIK
notes: also called MAb 1H12; m 1H12
[1]
  binding: binds
[2]
  binding: binds
